From paper doi:10.1101/2023.07.27.550782
Results are given in words; binding and its absence hold for the method and conditions named. In cells and extracts the contact can be indirect. Some binding calls cover weakened binding; strength is not graded here. For some assays here: Tags and fused reporters may be left off the sequences shown.

Sequences of proteins named here, by UniProt entry; tags and fusion partners are left off. A change or cut given only in a name is not applied to a line headed by its entry.
UniProt P25021: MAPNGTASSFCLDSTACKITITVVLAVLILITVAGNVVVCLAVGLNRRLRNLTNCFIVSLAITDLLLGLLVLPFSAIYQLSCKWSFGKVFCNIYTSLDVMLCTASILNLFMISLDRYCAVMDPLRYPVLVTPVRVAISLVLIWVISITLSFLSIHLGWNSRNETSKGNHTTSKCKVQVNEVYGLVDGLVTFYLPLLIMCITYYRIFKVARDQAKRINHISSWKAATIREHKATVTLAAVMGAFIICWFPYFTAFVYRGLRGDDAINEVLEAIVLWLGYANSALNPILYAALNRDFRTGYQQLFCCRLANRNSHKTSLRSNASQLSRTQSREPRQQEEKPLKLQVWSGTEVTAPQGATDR
UniProt P35367: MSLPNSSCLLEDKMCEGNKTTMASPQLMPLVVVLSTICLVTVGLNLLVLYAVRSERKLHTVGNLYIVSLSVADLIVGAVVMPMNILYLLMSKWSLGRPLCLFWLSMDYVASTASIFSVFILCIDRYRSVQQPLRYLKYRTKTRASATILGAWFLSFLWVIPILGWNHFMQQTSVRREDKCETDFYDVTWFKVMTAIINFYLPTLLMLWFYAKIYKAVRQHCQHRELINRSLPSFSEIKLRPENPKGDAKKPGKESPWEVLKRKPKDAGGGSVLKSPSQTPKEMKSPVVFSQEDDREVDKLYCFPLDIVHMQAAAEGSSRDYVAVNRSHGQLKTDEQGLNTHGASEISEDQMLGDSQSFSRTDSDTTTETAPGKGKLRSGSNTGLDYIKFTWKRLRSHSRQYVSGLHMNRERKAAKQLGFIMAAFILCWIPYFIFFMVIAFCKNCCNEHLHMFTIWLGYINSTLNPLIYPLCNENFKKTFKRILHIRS

What was measured:
[1] = biological target: human histamine 2 receptor, cell-free synthesized, Strep-tagged (H2R-Strep), in nanodiscs (DOPG) (human) (UniProt P25021); assay: pull-down
[2] = biological target: T1, free fatty acid 2 receptor, cell-free synthesized, Strep-tagged (FFAR2-Strep), in nanodiscs (DOPG) (UniProt O15552); assay: pull-down
T1 sequence: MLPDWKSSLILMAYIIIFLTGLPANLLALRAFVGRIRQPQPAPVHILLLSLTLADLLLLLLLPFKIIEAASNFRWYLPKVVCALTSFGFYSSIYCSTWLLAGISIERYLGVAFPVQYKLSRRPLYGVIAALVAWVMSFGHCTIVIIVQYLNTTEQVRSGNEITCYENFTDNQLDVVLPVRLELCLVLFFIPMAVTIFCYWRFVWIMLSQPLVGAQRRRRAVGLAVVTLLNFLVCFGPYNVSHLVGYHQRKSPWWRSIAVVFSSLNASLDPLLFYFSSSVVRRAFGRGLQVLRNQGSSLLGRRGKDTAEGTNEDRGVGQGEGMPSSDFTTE

binding [1]: binds | binding [2]: no binding
Substance: Flag-tagged H1R expressed in HEK293T cells (Flag-H1R) (from UniProt P35367 1-487) (receptor)
